Data as given in patent US20130210167A1, “IMMUNOASSAY FOR PYRROLIDINOPHENONES” (RANDOX LABORATORIES LIMITED, priority 2012, published 2013).

System: polyclonal antibody raised to Immunogen IV
Assay: Competitive biochip immunoassay of pyrrolidinophenones and potential cross-reactants (Evidence Investigator)
Type: binding, sheep

`CN1CC[C@]23c4c5ccc(O)c4O[C@H]2[C@@H](O)C=C[C@H]3[C@H]1C5.O=S(=O)(O)O` [Morphine sulphate] was tested, and the “% Cross-reactivity” value was <1%.
